Results on eleven compounds are retold here after PubChem BioAssay AID330 (DTP/NCI, 2004).

The list does not hold the whole screen: it gathers tests that were run many times, whatever their T/C, doses with no T/C, and many T/C values between a quarter and a half above the control. Further doses and runs are listed elsewhere. T/C: endpoint of the treated group in % of that of the vehicle group. Some entries give survivors of the animals treated and no T/C: the source files T/C as zero there, which appears to mark a toxic dose or a test without result, not a measured value. Some doses without a T/C left all or most animals alive at the check, yet need not have been tolerated: the source hardly ever lists a survival T/C far under the control, and the zero likely stands for such cases as well. Counts of survivors are from the toxicity check (mostly the fifth day) where no day follows; animals may have died later. Schedules are NCI's codes, read here as Q, the interval in days (D) or hours (H), X, the number of doses. Some entries hold several experiments; the results are listed from low to high. Where survival is the endpoint, this PubChem deposit counts one and a half times the control or more as active, and values a quarter to a half above the control carry no call in these data; other NCI protocols may use other cut-offs. Some T/C values are followed by the survivors on the day toxicity was checked, most often the fifth; without a count, all were alive then.

The assay has as its system P388 leukemia ip, CD2F1 mice, survival T/C. Kind of assay: NCI In Vivo Anticancer Drug Screen. Data for tumor model P388 Leukemia (intraperitoneal) in CD2F1 (CDF1) mice. As to conditions: T/C endpoint: median survival time, higher T/C = longer survival.
Setting [1] is: dose: 100.0 mg/kg/injection, schedule: Q01DX009 (ip), vehicle: saline.

In the case of `O=C(CNC(=O)Nc1ccc(C2=NCCN2)cc1)Nc1ccc(C2=NCCN2)cc1`, the T/C (dose: 50.0 mg/kg/injection, schedule: Q01DX009 (ip), vehicle: saline with Tween-80) was 131 % of control.

Regarding `O=C(O)c1ccc(-c2nn[nH]n2)cc1`, where the note is “dose: 50.0 mg/kg/injection, schedule: Q01DX009 (ip), vehicle: Klucel (hydroxypropylcellulose) (HPC)”, the survivor count is 6 of 6.

In the case of `CC(=O)CC(c1ccccc1)C(Sc1ccccc1)(Sc1ccccc1)Sc1ccccc1` (stereo not given), the survivor count (dose: 100.0 mg/kg/injection, schedule: Q01DX009 (ip), vehicle: Klucel (hydroxypropylcellulose) (HPC)) is listed as 6 of 6.

As to `N=C(N)c1ccc2cc(/C=C/c3cc4ccc(C(=N)N)cc4o3)oc2c1`, the T/C reads like this: (dose: 25.0 mg/kg/injection, schedule: Q04DX003 (ip), vehicle: suspension in saline) 131 % of control [5 of 6 alive]; (dose: 50.0 mg/kg/injection, schedule: Q04DX003 (ip), vehicle: suspension in saline) 140 % of control; (dose: 100.0 mg/kg/injection, schedule: Q04DX003 (ip), vehicle: suspension in saline) 140 % of control. For the same compound, the survivor count reads like this: (dose: 200.0 mg/kg/injection, schedule: Q04DX003 (ip), vehicle: suspension in saline) 2 of 6; (dose: 400.0 mg/kg/injection, schedule: Q04DX003 (ip), vehicle: suspension in saline) 0 of 6.

With `CCn1c2ccccc2c2cc(/C=N/Nc3cc(C)nc4cc5c(cc34)OCO5)ccc21`, the survivor count (dose: 200.0 mg/kg/injection, schedule: Q01DX005 (ip), vehicle: Klucel (hydroxypropylcellulose) (HPC)) is recorded as 6 of 6.

Regarding `N#CC1(NC(=O)C(Cl)Cl)c2ccccc2-c2ccccc21`, where the note is “dose: 240.0 mg/kg/injection, schedule: Q01DX005 (ip), vehicle: saline with Tween-80”, the survivor count is 6 of 6.

For the compound `CNC(=O)On1cc(Cl)cc1C#N`, the survivor count (dose: 200.0 mg/kg/injection, schedule: Q01DX001 (ip), vehicle: Klucel (hydroxypropylcellulose) (HPC)) is listed as 0 of 6.

Regarding `NC(=S)N/N=C\c1ccc(/C=N/NC(N)=S)cc1`, the survivor count (dose: 200.0 mg/kg/injection, schedule: Q04DX003 (ip), vehicle: saline with Tween-80) is reported as 6 of 6.

Take `COc1cc(NC(=O)N(CCCl)N=O)cc(OC)c1OC`: the T/C runs as follows: (dose: 0.59 mg/kg/injection, schedule: Q01DX009 (ip), vehicle: saline + alcohol) 143 % of control; (dose: 0.88 mg/kg/injection, schedule: Q01DX009 (ip), vehicle: saline + alcohol) 148 % of control; (dose: 2.2 mg/kg/injection, schedule: Q04DX003 (ip), vehicle: saline + alcohol) 136 % of control; (dose: 3.3 mg/kg/injection, schedule: Q04DX003 (ip), vehicle: saline + alcohol) 136 % of control; (dose: 5.0 mg/kg/injection, schedule: Q04DX003 (ip), vehicle: saline + alcohol) 136 % of control. Besides, the survivor count by setting is: (dose: 100.0 mg/kg/injection, schedule: Q04DX003 (ip), vehicle: other) 5 of 6; (dose: 200.0 mg/kg/injection, schedule: Q04DX003 (ip), vehicle: other) 0 of 6; (dose: 400.0 mg/kg/injection, schedule: Q04DX003 (ip), vehicle: other) 0 of 6.

With `C[CH2][Sn]([Br])([CH2]C)[c]1ccccc1CN(C)C`, the survivor count is, setting by setting: (dose: 50.0 mg/kg/injection, schedule: Q01DX009 (ip), vehicle: saline) 3 of 6; under setting [1], 2 of 6 and 3 of 6; (dose: 200.0 mg/kg/injection, schedule: Q01DX009 (ip), vehicle: saline) 6 of 6. Besides, the T/C under setting [1] was 130 % of control.

On to `COC(=O)c1c2ccccc2cn1C`, for which, where the note is “dose: 400.0 mg/kg/injection, schedule: Q04DX002 (ip), vehicle: saline with Tween-80”, the survivor count is given as 1 of 6.
